# The whole screen tested about 360,000 compounds, of which about 7,500 (2.1%) were called active. This list was built around the results that the source calls inconclusive (neither active nor inactive); the mix of calls is not that of the screen. Calls follow the shape of the dose curve; as a rule, active = well fitted inhibition curve with a large enough effect; inconclusive = small, poorly fitted or top-dose-only effect, or effect the other way; inactive = flat fitted curve, though single readings scatter. Potencies of inconclusive entries are doubtful fits and often do not repeat.
# Assay: Nrf2 qHTS screen for inhibitors; also: nearly all actives have a fitted effect of over 60% in size
# Conditions: A549 ARE-Fluc reporter, luciferase luminescence, 18-24 h; activity change, negative = inhibition: at 46 µM (top of the series)
# Procedure, shortened: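 Reporter: ARE-Fluc in A549. Exposure: 18-24 h, 37 °C, 5% CO2, 5% FBS OPTI-MEM. Readouts: fluorescent cytotoxicity (CellTiter-Fluor), then luminescent Nrf2 signal after BugLite.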
# % is scaled to controls: 0 for no effect and ±100 for the full control effect; potency is read from the fitted curve at half-maximal effect.
SMILES,Potency,"activity change, negative = inhibition"
Cc1ccc(-n2c(C)c(C)c3c(NCCO)ncnc32)cc1,"inconclusive: 9.2 µM [activator, partial curve]",–
Cc1ccccc1S(=O)(=O)Cc1ccc(C(=O)N2CCN(c3ccccc3F)CC2)o1,"inconclusive: 8.2 µM [falling, partial curve]",–
Cc1cc(C)c(/C=C2\C(=O)Nc3ccccc32)[nH]1,"inconclusive: 20.6 µM [falling, single point]",–
CC(C)CNC1=CC(=O)CC(c2ccco2)C1 (stereo not given),"inconclusive: 32.6 µM [falling, single point]",–
COc1ccc(-n2nc(C(=O)NCC(=O)Nc3ccccn3)c3ccccc3c2=O)cc1Cl,"inconclusive: 29.1 µM [falling, single point]",–
CCCC(=O)N(CCN(C(=O)CCC)c1ccccc1)c1ccccc1,"inconclusive: 29.1 µM [falling, single point]",–
CC1CCN(C(=O)CC2C(=O)Nc3c2c(=O)n(C)c(=O)n3Cc2ccccc2)CC1 (stereo not given),"inconclusive: 0.82 µM [falling, full curve, poor fit]",–
COc1ccccc1CN1CC(C(=O)NC2(c3ccccc3)CC2)CCC1=O (stereo not given),–,inactive: 12%
CC(C)(C)NC(=O)C1CCN(C(=O)c2ccc(-c3ccccc3)cc2)CC1,"inconclusive: 29.1 µM [falling, single point]",–
COc1ccc(Cl)cc1S(=O)(=O)N1CCN(C(=O)c2cc(-c3ccc(Br)cc3)n[nH]2)CC1,"inconclusive: 29.1 µM [falling, single point]",–
COc1cc(N2Cc3ccccc3C2)ccc1C=O,"inconclusive: 4.11 µM [activator, partial curve]",–
COC(=O)c1nc2ccc(N3CCOCC3)cc2c(C)c1C(=O)OC,"inconclusive: 2.91 µM [activator, full curve]",–
NC(=O)c1nn(-c2ccc(Cl)cc2Cl)c(=O)cc1O,"inconclusive: 6.51 µM [activator, single point]",–
COc1cccc(CN(C)C(=O)c2cccc(S(=O)(=O)N3CCN(c4ccc(F)cc4)CC3)c2)c1OC,active: 8.2 µM,–
O=C(CNC(=O)c1ccccc1F)OCCOc1cccc(Cl)c1,–,inactive: 0.103%
CCN(c1ccc(OC)cc1)S(=O)(=O)c1csc(C(=O)N2CCCC2)c1,–,inactive: 17%
CC1CCCCN1C(=O)CSc1nnc2c(n1)[nH]c1ccccc12 (stereo not given),"inconclusive: 16.4 µM [falling, single point]",–
CC(=O)N1NC(=Nc2ccccc2)SC1(C)C,"inconclusive: 29.1 µM [falling, single point]",–
CC1=C(C(=O)Nc2ccccc2C)C2(CCCCC2)C(C(N)=O)C(=S)N1 (stereo not given),–,inactive: 13.3%
CN(c1ccccc1)S(=O)(=O)c1ccc(NC(=O)c2ccc(F)cc2)cc1,–,inactive: -14.9%
C=CCOc1cccc(CNCCCN2CCOCC2)c1,–,inactive: -26%
Cc1[nH]nc(-c2cccnc2)c1N=NN(C)C,"inconclusive: 18.4 µM [falling, single point]",–
Cc1ccc(C(C)C)cc1OCC(=O)Nc1ccccc1N1CCCC1,"inconclusive: 23.1 µM [falling, partial curve, poor fit]",–

# Grouped by structure, the compounds so far with a furan ring, fused or not (two)
SMILES,Potency,"activity change, negative = inhibition"
Cc1ccccc1S(=O)(=O)Cc1ccc(C(=O)N2CCN(c3ccccc3F)CC2)o1,"inconclusive: 8.2 µM [falling, partial curve]",–
CC(C)CNC1=CC(=O)CC(c2ccco2)C1 (stereo not given),"inconclusive: 32.6 µM [falling, single point]",–

# Carrying on:

SMILES,Potency,"activity change, negative = inhibition"
CCn1ccc(C(=O)Nc2ccc(S(=O)(=O)Nc3ccccc3OC)cc2)n1,active: 14.6 µM,–
CCOc1cccc(C(=O)Nc2ccc3oc(Cc4ccc(Cl)cc4)nc3c2)c1,active: 20.6 µM,–
CC(=O)c1cc(Cl)ccc1OCc1cccc(S(=O)(=O)N2CCOCC2)c1,"inconclusive: 23.1 µM [falling, partial curve]",–
O=C(O)C1Cc2[nH]cnc2C(c2ccccc2O)N1 (stereo not given),–,inactive: 3.08%
OC(c1ccccc1)(c1ccccc1)C1CCN(C(=S)NCCc2ccccc2)CC1,active: 23.1 µM,–
CC(C)c1nc(SCC(=O)Nc2ccc3c(c2)OCCO3)n[nH]1,–,inactive: 6.11%
C/C(=N/NC(=O)c1nnn(-c2nonc2N)c1-c1ccccc1)c1ccc2c(c1)OCO2,–,inactive: -20.9%
COc1ccc(-c2csc(NC(=O)CSCC(=O)Nc3cc(C)on3)n2)cc1OC,"inconclusive: 0.0116 µM [falling, full curve, poor fit]",–
CCOC(=O)N1CCC(Nc2ncnc3c2cnn3-c2ccc(C)cc2C)CC1,active: 8.2 µM,–
OCCCc1nc2n(n1)C(c1ccccc1)C=C(c1ccccc1)N2 (stereo not given),"inconclusive: 16.4 µM [falling, partial curve, poor fit]",–
Cn1cnnc1Sc1ccc(/C=C/C(=O)c2ccc(O)cc2)cc1[N+](=O)[O-],active: 18.4 µM,–
COC(=O)c1sc2ncccc2c1OCc1ccc(Cl)cc1,"inconclusive: 20.6 µM [falling, partial curve, poor fit]",–
Cc1cccc(NC(=S)NC(=O)CCc2ccccc2)c1,"inconclusive: 20.6 µM [activator, partial curve]",–
Cc1cccc(OCC(=O)NCCCNC(=O)c2cccnc2)c1,"inconclusive: 2.91 µM [falling, full curve, poor fit]",–
N#Cc1ccccc1S(=O)(=O)N1CCN(c2nc(-c3ccccc3)nc3ccccc23)CC1,–,inactive: -8.13%
Cc1ccc(OCC(=O)Nc2ccc(Cl)cc2)c([N+](=O)[O-])n1,"inconclusive: 10.3 µM [activator, partial curve]",–
Nc1c(C(=O)c2ccccc2)sc2snc(SCC(=O)c3ccccc3)c12,"inconclusive: 0.651 µM [falling, partial curve, poor fit]",–
S=C(Nc1ccccc1Cl)N(CCCN1CCOCC1)Cc1ccco1,–,inactive: 6.99%
COc1ccc(NS(=O)(=O)c2ccc(N3CCCCC3)c(N)c2)cc1,active: 6.51 µM,–
CC1CCCC(NCC(O)COC(c2ccc(F)cc2)c2ccc(F)cc2)C1C (stereo not given),"inconclusive: 23.1 µM [falling, partial curve, poor fit]",–
Cc1ccc(-c2cc(C(F)(F)F)c(C#N)c(SCC(=O)O)n2)cc1,"inconclusive: 29.1 µM [falling, single point]",–
COc1cccc(-n2c(=O)c3c(C)c(C(=O)N(C)C)sc3n(CC(=O)NCC3CCCO3)c2=O)c1 (stereo not given),"inconclusive: 1.3 µM [falling, partial curve, poor fit]",–
